Assay results taken from US20240385168A1, “SEMICONDUCTOR-BASED MEASUREMENT DEVICES” (CytoTronics, priority 2023, published 2024).
For at least one compound, name, drawing or mass did not settle the structure.

Key:
[1] = system: MDCK cells; assay: Live-cell impedance measurements of MDCK cells after compound treatment (water transport, doming); type: cell-based, canine
Protocol: (§1) Impedance measurements were performed with two different electric field configurations named vertical field (VF) and lateral field (LF) and at four different frequencies of 250 Hz, 1 kHz, 4 kHz, and 16 kHz, as shown in FIG. 27A. In total, 9 impedance parameter maps were measured per field configuration, including magnitude and phase for the 4 frequencies and a Direct Current (DC, 0 Hz) magnitude. […] Connections were observed between biological information and measurements at frequency magnitudes, phases, and DC.
(§2) To perform field-based impedance measurements across multiple frequencies, a voltage stimulation was applied which is the summation of the four different frequency signals and return currents were measured using a transimpedance amplifier (TIA) configuration with a feedback gain of 18 MΩ. The magnitudes of the AC voltage signals were scaled to create similar output amplitudes that were measured by the TIA configuration (0.2 V/250 Hz, 0.08 V/1 kHz, 0.04 V/4 kHz, and 0.02 V/16 kHz for lateral field, 0.25 V/250 Hz, 0.1 V/1 kHz, 0.04 V/4 kHz, and 0.025 V/16 kHz for vertical field). Six of the 96 wells were scanned at a time taking 2.5 s, resulting in a total scan time across the well plate of 40 s. A fast Fourier transform (FFT) was used to extract the magnitude and phase of each of the four frequencies and the DC component—9 impedance parameter maps for each field configuration.
A reference impedance map was used to determine the location of cells: a threshold was set above the electrodes' default impedance in solution, and the presence of a cell above an electrode then increased the impedance beyond the threshold for detection. Typically, the VF 4 kHz map provided the best contrast for generating the cell mask. For magnitude, phase, and DC, the median value of electrodes with cells was then calculated. An additional epoxy mask was calculated in a similar manner to remove electrodes which had spillover epoxy from well plate attachment. Before each cell plating, a reference measurement was taken in empty culture media to calculate the epoxy mask.
Transient features such as motility and migration were generated from impedance videos through a root-mean-square (RMS) calculation. The difference between two unmasked image frames was taken (the epoxy mask was still used if applicable), then the RMS calculation was performed across the pixels of the difference map. To normalize for changes in magnitude, the calculated RMS was then divided by the median value of the cell-masked well distribution. Typically, the VF 4 kHz map was used for the RMS signal generation.
Compound treatments were performed using a half media exchange. To prepare for compound addition, half the media from each well was removed. Compounds were prepared at 2× concentration in cell culture media, and the 2× compound solution was then added to the wells. Care was taken to keep DMSO concentration below 1%, compound dilutions were performed with a constant DMSO concentration. Compound in media was temperature- and CO2-equilibrated prior to addition. All compounds including the 341 compound library were obtained from Selleckchem Chemicals (Houston, TX). For the screening analysis, the pathway and target information provided by Selleckchem Chemicals was curated together.
Compound screening was then performed to help reveal the range of functional phenotypes that can be observed using the measurement devices. Two approaches were taken. […]

[2] = system: Caco-2 cells; assay: Bosutinib titration on Caco-2 cells plated on an uncoated surface (impedance, doming); type: cell-based, human
[3] = system: Caco-2 cells; assay: Caco-2 impedance barrier function measurements (341 compound screen, dose response, Amonafide analogues); type: cell-based, human; conditions: Caco-2 screen; positive controls; collagen surface treatment
Protocol: To execute and analyze the screens, cells were seeded on five CMOS 96-wellplates, allowed to grow for 24 hours for A549 or 48 hours for Caco-2, compounds were added at 10 μM in 1% DMSO via a half media swap using an OpenTrons liquid handling robot. Effects were measured for 48 hours, with impedance measurements taken every 15 minutes. The many field/frequency and calculated parameters were then normalized to a timepoint one hour before compound addition. The array of normalized parameters at timepoints logarithmically spaced from compound addition to +48 hours were then used for a principal component analysis (PCA) and unbiased clustering using the top 20 PCA dimensions.
Compound treatments were performed using a half media exchange. To prepare for compound addition, half the media from each well was removed. […]
In the second approach, rather than comparing 5 measurement parameters, all field and calculation parameters were used to perform an unbiased phenotypic profiling with a larger compound library. […] For the screens, compounds were added 24 or 48 hours post cell seeding and measured up to 48 hours after the compound addition. Time normalization, a principal component analysis (PCA), and unbiased clustering were sequentially performed on the high-dimensional data readouts (VF & LF magnitudes, phase, and DC). […]

[4] = system: MDA-MB-231 cells; assay: Live-cell impedance measurements of MDA-MB-231 cells after compound treatment; type: cell-based, human
Protocol: as §1
as §2, with “Six of the 96 wells were scanned at a time taking 2.5 s, resulting in a total scan time across the well plate of 40 s. A fast Fourier transform (FFT) was used to extract the magnitude and phase of each of the four frequencies and the DC component—9 impedance parameter maps for each field configuration.” left out
Transient features such as motility and migration were generated from impedance videos through a root-mean-square (RMS) calculation. […] To normalize for changes in magnitude, the calculated RMS was then divided by the median value of the cell-masked well distribution. […]

[5] = system: A549 cells; assay: Live-cell impedance measurements of A549 cells after compound treatment; type: cell-based, human

SMILES	cell surface attachment [1]	transepithelial water transport [1]	domes (doming) ([1]; Alisertib 1 μM, Bosutinib 10 μM)	water transport detachment (LF 16 kHz) with respect to the control ([1]; mean±s.d. for 3 wells)	attachment [2]	domes [3]	attachment [4]	motility (RMS) [4]	morphological parameters [1]	cell-surface attachment [5]	tissue barrier [5]
COc1cc(Nc2c(C#N)cnc3cc(OCCCN4CCN(C)CC4)c(OC)cc23)c(Cl)cc1Cl [Bosutinib]	slower decrease	decelerated	no domes	delayed	rapid decrease in attachment	domes were not observed					
C[C@@H]1C[C@H]2[C@@H]3CCC4=CC(=O)C=C[C@]4(C)[C@@]3(F)[C@@H](O)C[C@]2(C)[C@@]1(O)C(=O)CO [Dexamethasone]							increase	decrease	does not seem to affect any of the morphological parameters	increasing	increasing
